Test results as given in US20260166139A1.
Residue numbers refer to the chain shown, from its start. These are yes or no findings as the source states them, for the method shown. Some results given as binding are weak or reduced against the parent protein; the word gives no strength.

The chains behind the UniProt entries cited, without tags or fusion partners. Residues count along the entry.
UniProt P16410, residues 36-223: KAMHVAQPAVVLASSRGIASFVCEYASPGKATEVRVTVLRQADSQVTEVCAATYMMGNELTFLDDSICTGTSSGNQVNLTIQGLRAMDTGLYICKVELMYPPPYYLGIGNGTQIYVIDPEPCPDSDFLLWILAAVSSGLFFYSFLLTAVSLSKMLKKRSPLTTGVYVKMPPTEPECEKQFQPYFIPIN

B1: monoclonal antibody 8D2 (antibody, V domains shown)
VH: EVKLDETGGGLVQPGRPMKLSCVASGFTFSDNWMNWVRQSPEKGLEWLAQIRNKPYNYETYYSDSVKGRFTISRDDSKSSVYLQMNNLRGEDMGIYYCTAQFAYWGQGTLVTVSA
VL: DIQMTQSPASLSASVGETVTITCGTSENIYGGLNWYQRKQGKSPQLLIFGATNLADGMSSRFSGSGSGRQYSLKISSLHPDDVATYYCQNVLRSPFTFGSGTKLEI
B2: humanized antibody 8D2H1L1 (antibody, V domains shown)
VH: EVQLVESGGGLVQPGGSMRLSCAASGFTFSDNWMNWVRQAPGKGLEWLAQIRNKPYNYETYYSDSVKGRFTISRDDSKNSVYLQMNSLKTEDTGVYYCTAQFAYWGQGTLVTVSS
VL: DIQMTQSPSSLSASVGDRVTITCRTSENIYGGLNWYQRKQGKSPKLLIYGATNLASGMSSRFSGSGSGTDYTLKISSLHPDDVATYYCQNVLRSPFTFGSGTKLEIK
B3: humanized antibody 8D2H2L2 (antibody, V domains shown)
VH: B2 VH with D64A
VL: B2 VL with Q40P, M58V, K74T, H79Q, D81E
B4: humanized antibody 8D2H3L3 (antibody, V domains shown)
VH: B2 VH with M18L, L48V, Y61E, S63A, D64A, V81A, G94A
VL: DIQMTQSPSSLSASVGDRVTITCRASENIYGGLNWYQQKPGKAPKLLIYGATSLASGVPSRFSGSGSGTDYTLTISSLQPEDFATYYCQNVLRSPFTFGSGTKLEIK
B5: 8D2 recombinant antibody, 8D2(Re) (antibody, V domains shown)
VH: B1 VH
VL: B1 VL

Molecular target: CTLA4 antigen on the surface of 293F-CTLA4 host cells (UniProt P16410)
Assay: flow cytometry, 293F-CTLA4 cells

Binder | binding
B1 | binds
B2 | binds
B3 | binds
B4 | binds
B5 | binds
